Results as given in article PMC9226220.
These are yes or no findings as the source states them, for the method shown. Binding seen in cells or lysates may run through a third protein. Here binding means that the protein was enriched with, or labelled near, the bait; the list need not be complete. Each block holds one molecule with its values, some of them ahead of it.

Amino acid sequences for entries named in this document (tags omitted).
UniProt Q61937: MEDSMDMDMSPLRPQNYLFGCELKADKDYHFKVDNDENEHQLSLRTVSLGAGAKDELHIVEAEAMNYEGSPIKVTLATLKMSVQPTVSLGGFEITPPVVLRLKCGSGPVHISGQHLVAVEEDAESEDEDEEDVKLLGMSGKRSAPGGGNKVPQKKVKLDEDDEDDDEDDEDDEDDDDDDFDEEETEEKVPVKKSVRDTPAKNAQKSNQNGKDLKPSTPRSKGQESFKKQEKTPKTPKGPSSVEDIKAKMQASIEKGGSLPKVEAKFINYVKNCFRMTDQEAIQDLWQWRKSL

Target: T1, LIN28A (mouse (endogenous in ES cells)) (UniProt Q8K3Y3)
T1 sequence: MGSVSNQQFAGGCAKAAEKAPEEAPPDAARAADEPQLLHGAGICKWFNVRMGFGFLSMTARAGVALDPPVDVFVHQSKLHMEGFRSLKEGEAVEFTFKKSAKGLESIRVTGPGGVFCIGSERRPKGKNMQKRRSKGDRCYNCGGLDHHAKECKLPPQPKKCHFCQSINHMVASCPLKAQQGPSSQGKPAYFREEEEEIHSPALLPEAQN
Test: affinity purification with mass spectrometry; LIN28A immunoprecipitation followed by mass spectrometry with cytosolic and nuclear fractions of wild-type ES cells

- binding: binds
Molecule: Nucleophosmin (NPM1) (from UniProt Q61937 1-292)

- binding: binds
B1: Fibrillarin (FBL) (protein, UniProt P35550 1-327)
chain: MKPGFSPRGGGFGGRGGFGDRGGRGGGRGGRGGFGGGRGGFGGGGRGRGGGGGGFRGRGGGGGRGGGFQSGGNRGRGGGRGGKRGNQSGKNVMVEPHRHEGVFICRGKEDALVTKNLVPGESVYGEKRVSISEGDDKIEYRAWNPFRSKLAAAILGGVDQIHIKPGAKVLYLGAASGTTVSHVSDIVGPDGLVYAVEFSHRSGRDLINLAKKRTNIIPVIEDARHPHKYRMLIAMVDVIFADVAQPDQTRIVALNAHTFLRNGGHFVISIKANCIDSTASAEAVFASEVKKMQQENMKPQEQLTLEPYERDHAVVVGVYRPPPKVKN
